Reference: article PMC4487770
No constants are given. Whether binding was seen depends on the method and setting. In cells and extracts the contact can be indirect. Some results given as binding are weak or reduced against the parent protein; the word gives no strength.

By UniProt entry, the sequences of proteins in these tests, tags left out.
UniProt Q9JK25: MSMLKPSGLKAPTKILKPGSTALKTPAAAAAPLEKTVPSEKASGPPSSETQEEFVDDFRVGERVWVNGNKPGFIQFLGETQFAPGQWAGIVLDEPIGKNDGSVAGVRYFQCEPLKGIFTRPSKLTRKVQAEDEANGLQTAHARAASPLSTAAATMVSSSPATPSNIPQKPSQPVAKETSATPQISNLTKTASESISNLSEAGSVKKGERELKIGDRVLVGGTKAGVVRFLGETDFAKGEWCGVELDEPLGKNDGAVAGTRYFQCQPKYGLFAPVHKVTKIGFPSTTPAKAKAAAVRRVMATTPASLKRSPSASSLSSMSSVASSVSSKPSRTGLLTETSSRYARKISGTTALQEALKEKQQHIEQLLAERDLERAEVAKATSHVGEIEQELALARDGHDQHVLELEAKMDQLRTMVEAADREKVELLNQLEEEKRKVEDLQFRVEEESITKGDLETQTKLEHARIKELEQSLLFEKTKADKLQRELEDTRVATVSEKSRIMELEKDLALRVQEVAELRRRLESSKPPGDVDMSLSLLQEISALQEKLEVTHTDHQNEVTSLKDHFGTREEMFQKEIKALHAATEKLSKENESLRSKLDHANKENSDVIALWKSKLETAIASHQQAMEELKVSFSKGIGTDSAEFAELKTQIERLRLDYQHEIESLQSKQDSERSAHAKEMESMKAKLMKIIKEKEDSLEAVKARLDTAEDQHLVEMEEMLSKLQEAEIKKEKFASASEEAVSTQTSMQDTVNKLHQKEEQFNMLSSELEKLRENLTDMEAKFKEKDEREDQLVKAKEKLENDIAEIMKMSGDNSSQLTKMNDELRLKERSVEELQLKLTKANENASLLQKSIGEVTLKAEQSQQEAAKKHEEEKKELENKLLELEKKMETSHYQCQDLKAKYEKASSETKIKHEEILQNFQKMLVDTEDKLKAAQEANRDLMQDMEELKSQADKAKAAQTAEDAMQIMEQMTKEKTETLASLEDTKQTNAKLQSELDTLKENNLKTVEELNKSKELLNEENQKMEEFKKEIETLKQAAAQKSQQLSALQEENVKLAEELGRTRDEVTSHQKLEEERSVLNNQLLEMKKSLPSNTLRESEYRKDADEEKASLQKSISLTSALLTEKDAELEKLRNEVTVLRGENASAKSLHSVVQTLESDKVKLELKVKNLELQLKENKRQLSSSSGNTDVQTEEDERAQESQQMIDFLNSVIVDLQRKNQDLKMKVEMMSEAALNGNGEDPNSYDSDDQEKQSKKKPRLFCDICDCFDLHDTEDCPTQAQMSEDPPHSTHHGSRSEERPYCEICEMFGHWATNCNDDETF
UniProt Q15691: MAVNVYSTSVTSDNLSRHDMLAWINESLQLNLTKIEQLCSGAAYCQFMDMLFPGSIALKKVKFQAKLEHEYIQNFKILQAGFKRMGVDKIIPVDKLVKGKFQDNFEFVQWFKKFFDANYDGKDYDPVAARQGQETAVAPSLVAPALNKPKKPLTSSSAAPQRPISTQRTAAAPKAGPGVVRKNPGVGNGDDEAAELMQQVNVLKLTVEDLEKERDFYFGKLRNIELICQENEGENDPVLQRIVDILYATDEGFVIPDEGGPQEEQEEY
UniProt Q14573: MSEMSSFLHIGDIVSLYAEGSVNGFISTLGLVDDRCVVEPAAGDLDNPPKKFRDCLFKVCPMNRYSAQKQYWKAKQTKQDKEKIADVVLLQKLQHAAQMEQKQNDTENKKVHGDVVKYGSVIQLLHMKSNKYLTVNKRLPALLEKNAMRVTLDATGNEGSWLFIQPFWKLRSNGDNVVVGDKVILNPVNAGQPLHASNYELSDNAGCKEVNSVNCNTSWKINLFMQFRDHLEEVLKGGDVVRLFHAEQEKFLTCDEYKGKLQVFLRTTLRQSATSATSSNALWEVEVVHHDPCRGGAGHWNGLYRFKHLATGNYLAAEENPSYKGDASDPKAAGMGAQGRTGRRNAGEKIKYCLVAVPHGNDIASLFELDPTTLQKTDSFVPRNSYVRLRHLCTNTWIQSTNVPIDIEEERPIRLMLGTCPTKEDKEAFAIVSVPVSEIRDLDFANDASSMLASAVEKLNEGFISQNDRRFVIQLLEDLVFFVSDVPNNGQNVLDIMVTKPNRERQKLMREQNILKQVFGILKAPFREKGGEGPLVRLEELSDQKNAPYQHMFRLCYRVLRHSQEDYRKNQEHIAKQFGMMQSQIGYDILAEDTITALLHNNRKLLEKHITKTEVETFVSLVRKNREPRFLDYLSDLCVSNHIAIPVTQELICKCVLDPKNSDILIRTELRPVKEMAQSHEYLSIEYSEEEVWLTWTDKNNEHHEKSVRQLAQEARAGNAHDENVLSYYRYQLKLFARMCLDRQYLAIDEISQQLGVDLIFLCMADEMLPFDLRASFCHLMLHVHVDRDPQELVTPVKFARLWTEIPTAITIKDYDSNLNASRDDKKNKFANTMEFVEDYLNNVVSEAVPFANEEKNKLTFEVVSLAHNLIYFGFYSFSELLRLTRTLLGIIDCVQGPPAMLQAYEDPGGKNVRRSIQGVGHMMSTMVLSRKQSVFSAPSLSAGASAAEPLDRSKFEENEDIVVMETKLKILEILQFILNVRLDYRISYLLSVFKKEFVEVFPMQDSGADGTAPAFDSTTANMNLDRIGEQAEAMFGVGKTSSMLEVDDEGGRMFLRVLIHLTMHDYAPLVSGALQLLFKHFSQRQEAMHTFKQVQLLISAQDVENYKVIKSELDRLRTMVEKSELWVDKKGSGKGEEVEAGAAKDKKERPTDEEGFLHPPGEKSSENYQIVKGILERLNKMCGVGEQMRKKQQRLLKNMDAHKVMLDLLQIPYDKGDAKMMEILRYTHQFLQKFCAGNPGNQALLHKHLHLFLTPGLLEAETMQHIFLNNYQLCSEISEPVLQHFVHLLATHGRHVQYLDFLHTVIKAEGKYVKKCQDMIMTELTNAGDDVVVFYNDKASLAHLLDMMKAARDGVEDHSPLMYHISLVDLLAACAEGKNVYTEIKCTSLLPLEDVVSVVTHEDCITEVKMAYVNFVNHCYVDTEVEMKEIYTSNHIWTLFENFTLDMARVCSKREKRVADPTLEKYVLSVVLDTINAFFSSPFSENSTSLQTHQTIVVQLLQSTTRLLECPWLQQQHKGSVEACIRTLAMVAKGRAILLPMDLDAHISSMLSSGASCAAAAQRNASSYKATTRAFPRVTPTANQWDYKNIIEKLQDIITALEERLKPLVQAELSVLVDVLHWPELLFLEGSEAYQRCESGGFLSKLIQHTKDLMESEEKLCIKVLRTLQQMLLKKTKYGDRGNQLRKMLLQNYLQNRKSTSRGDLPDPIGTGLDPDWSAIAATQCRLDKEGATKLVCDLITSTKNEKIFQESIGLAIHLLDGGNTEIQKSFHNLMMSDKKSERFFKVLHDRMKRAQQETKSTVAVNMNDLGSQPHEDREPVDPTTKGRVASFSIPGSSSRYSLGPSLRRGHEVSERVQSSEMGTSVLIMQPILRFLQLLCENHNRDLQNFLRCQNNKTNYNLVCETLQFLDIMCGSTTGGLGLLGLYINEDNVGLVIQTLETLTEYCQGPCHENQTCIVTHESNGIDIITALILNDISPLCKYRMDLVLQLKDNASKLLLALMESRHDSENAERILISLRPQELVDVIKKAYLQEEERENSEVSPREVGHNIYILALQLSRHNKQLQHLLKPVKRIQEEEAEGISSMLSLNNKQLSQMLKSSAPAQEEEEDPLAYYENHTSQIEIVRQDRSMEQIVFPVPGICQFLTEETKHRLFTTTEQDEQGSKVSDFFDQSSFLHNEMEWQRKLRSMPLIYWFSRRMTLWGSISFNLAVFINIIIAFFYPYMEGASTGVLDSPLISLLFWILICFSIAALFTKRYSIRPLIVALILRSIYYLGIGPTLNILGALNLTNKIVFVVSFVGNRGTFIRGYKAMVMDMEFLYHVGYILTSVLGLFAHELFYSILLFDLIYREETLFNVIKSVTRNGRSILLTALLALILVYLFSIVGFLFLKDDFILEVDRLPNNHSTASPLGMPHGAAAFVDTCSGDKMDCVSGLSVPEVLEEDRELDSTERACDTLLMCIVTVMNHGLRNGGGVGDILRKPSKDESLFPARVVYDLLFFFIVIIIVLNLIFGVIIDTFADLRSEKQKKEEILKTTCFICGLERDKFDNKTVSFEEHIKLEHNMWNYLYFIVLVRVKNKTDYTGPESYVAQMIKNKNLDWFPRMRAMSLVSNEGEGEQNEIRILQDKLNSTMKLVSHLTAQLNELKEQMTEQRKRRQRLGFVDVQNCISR

Legend:
[1] = biological target: mRFP-(rat)CLIP-170 (expressed in HLMVECs) (rat) (UniProt Q9JK25); experiment: FRET or BRET; intact HLMVECs expressing GFP-IP3R3 (donor) with EB3-mRFP or mRFP-CLIP-170 (acceptor); quenching of GFP at microtubule tips and recovery of donor fluorescence after focal acceptor photobleaching
[2] = biological target: (His6)-EB1, end-binding protein 1 (UniProt Q15691); experiment: pull-down; (His6)-EB proteins expressed in bacteria, covalently bound to Ni-NTA resin; lysates from HEK cells expressing GFP-tagged proteins; western blot for GFP; only the target purified

Substance	binding [1]	binding [2]
GFP-IP3R3 (expressed in HLMVECs) (from UniProt Q14573 1-2671) (receptor)	no binding	–
GFP-IP3R3, inositol 1,4,5-trisphosphate receptor type 3 (HEK cell lysate) (from UniProt Q14573 1-2671)	–	binds
